Reference: paper PMC8858635
These are yes or no findings as the source states them, for the method shown. In cells and extracts the contact can be indirect. Some binding calls cover weakened binding; strength is not graded here.

The chains behind the UniProt entries cited, without tags or fusion partners. Residues count along the entry.
UniProt P35222: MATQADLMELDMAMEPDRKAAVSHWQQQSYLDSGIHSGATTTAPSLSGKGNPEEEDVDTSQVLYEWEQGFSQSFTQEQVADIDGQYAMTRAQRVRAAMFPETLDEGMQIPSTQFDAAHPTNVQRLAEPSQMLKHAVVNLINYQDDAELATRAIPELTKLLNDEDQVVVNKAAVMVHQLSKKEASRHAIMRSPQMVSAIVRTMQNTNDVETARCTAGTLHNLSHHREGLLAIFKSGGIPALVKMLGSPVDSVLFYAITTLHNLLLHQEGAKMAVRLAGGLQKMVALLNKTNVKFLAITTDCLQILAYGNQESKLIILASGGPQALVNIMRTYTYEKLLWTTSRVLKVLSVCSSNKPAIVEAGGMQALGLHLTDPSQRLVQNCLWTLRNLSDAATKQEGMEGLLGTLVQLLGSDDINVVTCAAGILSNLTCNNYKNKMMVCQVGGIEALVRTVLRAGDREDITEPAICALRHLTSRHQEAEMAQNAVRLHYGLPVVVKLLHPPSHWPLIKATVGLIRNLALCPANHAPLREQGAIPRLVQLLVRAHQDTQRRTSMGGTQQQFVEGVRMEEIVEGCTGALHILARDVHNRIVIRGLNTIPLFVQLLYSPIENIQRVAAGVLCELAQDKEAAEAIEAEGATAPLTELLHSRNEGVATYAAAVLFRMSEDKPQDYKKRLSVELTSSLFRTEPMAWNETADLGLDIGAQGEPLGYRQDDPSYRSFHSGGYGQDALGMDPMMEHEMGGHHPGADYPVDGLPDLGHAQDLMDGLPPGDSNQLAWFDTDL
UniProt Q9HB71, residues 44-228: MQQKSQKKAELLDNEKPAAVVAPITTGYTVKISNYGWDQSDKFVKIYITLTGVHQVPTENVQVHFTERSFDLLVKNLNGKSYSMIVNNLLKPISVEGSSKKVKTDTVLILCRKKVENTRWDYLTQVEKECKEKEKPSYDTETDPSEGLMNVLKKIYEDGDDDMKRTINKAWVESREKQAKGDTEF

Biological target: β-catenin (human (endogenous in MM cell lines ARP1 and CAG)) (UniProt P35222)
Experiment: co-IP; Pierce Direct Magnetic IP/Co-IP kit; MM cells expressing FLAG-tagged CACYBP isoform2; which partner was precipitated is not told

In the case of “FLAG-tagged CACYBP isoform2 (calcyclin binding protein isoform2, NM_001007214.1) (from UniProt Q9HB71-3 1-185)”, the binding is reported as “binds”.
